Source: PubChem BioAssay AID2685 (National Center for Advancing Translational Sciences (NCATS), 2010)
This is one part of the list. The main result of the screen is listed elsewhere. These columns were measured beside it and carry no call. Most of these compounds were active or inconclusive in the main read-out, so they are no random draw. Potencies come from curve fits of mixed quality, noted in brackets.

Test: qHTS Assay for Lipid Storage Modulators in Drosophila S3 Cells;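 as to cell number change: cells counted by Cell Tracker Red CMTPX staining in the red channel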
Settings: BODIPY lipid droplet fluorescence, 18-24 h; for cell number change: measured here: cell count max response, cells fed with added oleic acid
Procedure, shortened: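 Laser-scanning cytometry quantifies lipid droplet accumulation (500–530 nm total intensity; droplet/cell object ratio) in oleic acid-fed (400 uM added) Drosophila S3 cells treated with a concentration series. 20 uM Triacsin C defined 100% inhibition.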

[1] = measured here: lipid fluorescence (Fed channel) AC50, cells fed with added oleic acid
[2] = measured here: cell number channel AC50, cells fed with added oleic acid

SMILES | cell number change | AC50 [1] | AC50 [2]
COCCNC(=O)CN1CCOc2ccccc21 | 16.2% | 6.51 µM [rising, partial curve, poor fit] | –
CN1/C(=C\C(=O)C[n+]2ccc(C(=O)c3ccccc3)cc2)C(C)(C)c2ccccc21 | -27.7% | 18.4 µM [falling, single point] | –
Brc1cccc(OCCn2ccnc2)c1 | 127% | 4.11 µM [rising, partial curve] | 9.2 µM [rising, partial curve]
Cc1cc(C(=O)CSc2nc(N)cc(N)n2)c(C)n1C1CC1 | -9.4% | – | 0.13 µM [falling, full curve]
CCOC(=O)[C@H]1[C@H]2COc3ccc(C)cc3[C@@H]2N2C(=O)[C@@H](CO)NC(=O)[C@@]12C | -13.4% | 3.26 µM [falling, full curve, poor fit] | –
CN1CCN(C(=O)c2ccccc2NC(=O)c2ccccc2)CC1 | 7.8% | 4.61 µM [rising, partial curve] | –
CC(CNC(=O)c1ccc(C(C)(C)C)cc1)CN(C)C (configuration not stated) | -13.2% | 0.00461 µM [falling, full curve, poor fit] | –
COc1ccc(C2CC(c3ccccc3O)=NN2C(=O)c2ccccc2)cc1OC (configuration not stated) | -31.5% | – | 0.13 µM [falling, full curve, poor fit]
COc1ccc(-c2ccc(/C=C3/C(=N)N4C(C)=CSC4=NC3=O)o2)c([N+](=O)[O-])c1 | -19.3% | – | –
CCOCCCNCC(=O)Nc1ccc(OC(F)(F)F)cc1 | 47.4% | – | 32.6 µM [rising, single point]
CC(=O)N1CCN(c2ccc(NC(=O)c3ccccc3)cc2)CC1 | 10.8% | 29.1 µM [rising, single point] | –
CCCCn1c(N)c(N(CCOC)C(=O)COC(=O)CCOc2ccc(C)cc2)c(=O)[nH]c1=O | -13.3% | 1.46 µM [falling, full curve] | –
COc1ccc(N2CCN(C(=O)Cn3cnc4sc(C)c(S(=O)(=O)N5CCOCC5)c4c3=O)CC2)cc1 | 16.2% | 0.206 µM [rising, full curve] | –
O=C(c1cccs1)[C@@H]1[C@@H]2C(=O)N(Cc3ccc4c(c3)OCO4)C(=O)[C@@H]2C2c3ccccc3C=CN21 (some centres not stated) | 35.6% | – | 2.06 µM [rising, partial curve]
COc1ccc2cc3cc(C(=O)NCCN4CCc5ccccc5C4)oc3nc2c1 | -14.9% | 14.6 µM [falling, single point] | –
COc1ccccc1CC(=O)Nc1c[nH]c(=O)[nH]c1=O | -32.6% | 0.146 µM [falling, full curve, poor fit] | 0.82 µM [falling, full curve]
CCOC(=O)c1cccc(Nc2nc(-c3cccnc3)nc3ccccc23)c1 | -51.1% | 29.1 µM [falling, partial curve, poor fit] | 29.1 µM [falling, single point]
O=C(c1cccs1)N1CCN=C1SCc1cccc(F)c1 | – | – | 0.411 µM [rising, partial curve]
C=CCOc1ccccc1C(=O)/C=C1/C(=O)Nc2ccccc21 | -72.7% | – | 16.4 µM [falling, single point]
Cc1ccccc1C(=O)Nc1cccc(NC(=O)c2ccc(F)cc2)c1 | 22.7% | 29.1 µM [rising, single point] | –

Some of these compounds in order of SMILES length, ascending.
SMILES | cell number change | AC50 [1] | AC50 [2]
CC(CNC(=O)c1ccc(C(C)(C)C)cc1)CN(C)C (configuration not stated) | -13.2% | 0.00461 µM [falling, full curve, poor fit] | –
CN1CCN(C(=O)c2ccccc2NC(=O)c2ccccc2)CC1 | 7.8% | 4.61 µM [rising, partial curve] | –
CCCCn1c(N)c(N(CCOC)C(=O)COC(=O)CCOc2ccc(C)cc2)c(=O)[nH]c1=O | -13.3% | 1.46 µM [falling, full curve] | –

(continued)

SMILES | cell number change | AC50 [1] | AC50 [2]
COc1cccc(/C=C/C(=O)OCC(=O)c2c(N)n(C)c(=O)n(C)c2=O)c1 | -1.61% | 29.1 µM [falling, single point] | –
CCCC(=O)NC(c1ccco1)c1c(O)ccc2ccccc12 (configuration not stated) | – | 0.58 µM [falling, single point] | –
Cc1nnc(NC(=O)c2ccc3ccccc3c2)s1 | 16.6% | – | –
COc1ccc(OC(C)C(=O)Nc2cccnc2)cc1 (configuration not stated) | -35.8% | 6.51 µM [falling, single point] | 7.31 µM [falling, partial curve]
Clc1ccccc1-c1nc(N/N=C/c2cccnc2)c2ccccc2n1 | 42.1% | – | 32.6 µM [rising, single point]
CCCn1nnnc1NCc1ccc(SC)cc1 | 8.8% | – | 0.082 µM [rising, full curve, poor fit]
Cc1cc(=O)oc(C)c1C(=O)OCC(=O)c1ccc(Cl)c(Cl)c1 | -2.43% | 23.1 µM [falling, partial curve] | 0.0517 µM [falling, full curve, poor fit]
CCCN(CCC)C(=S)NC1CC2C=CC1C2 (configuration not stated) | -1.49% | – | 3.66 µM [falling, single point]
CCCCN(CCCNC(=O)C1CCN(S(=O)(=O)N2CCOCC2)CC1)c1ccccc1 | -31.4% | 29.1 µM [falling, single point] | 32.6 µM [falling, partial curve, poor fit]
COc1cc(C2NC(=S)NC(O)(C(F)(F)F)C2C(=O)c2cccs2)cc(OC)c1O (configuration not stated) | 38.7% | 29.1 µM [rising, single point] | 29.1 µM [rising, single point]
CCOC(=O)COc1ccc(C(=O)Nc2cccc(Cl)c2C)cc1 | -9.01% | 0.461 µM [falling, single point] | 0.517 µM [falling, single point]
COc1ccc(CNS(=O)(=O)c2c(C(=O)N3CCCCCC3)c(C)n(C)c2C)cc1 | -4.89% | 0.0164 µM [rising, full curve, poor fit] | –
Cc1ccc([C@@H]2[C@@H]3C(=O)N(c4ccccc4)C(=O)[C@@H]3[C@]3(C)C(=O)N(CC4CC4)CC(=O)N23)o1 | 14.7% | 1.84 µM [rising, partial curve] | –
CCc1ccc(CN(C)Cc2nc(-c3cccc(Cl)c3)no2)nc1 | -13.2% | 0.00461 µM [falling, full curve, poor fit] | –
CCSc1nc(-c2ccc(OC)cc2)ccc1C#N | – | 5.17 µM [rising, full curve] | –
CCn1c(SCc2ccc(C(=O)O)cc2)nnc1-c1ccc(Cl)cc1 | -8.64% | 23.1 µM [falling, single point] | –
COCCNC(=O)c1cc(-c2ccccc2)n(CC2CC(c3ccc(OC)cc3)=NO2)n1 (configuration not stated) | -13.6% | 0.13 µM [falling, full curve, poor fit] | –
COc1ccc2oc(C(=O)OCC(=O)N(Cc3ccccc3)C(C)C)c(C)c2c1 | -19.8% | – | –
CCN(CC)S(=O)(=O)c1ccc(C(C)NCC(=O)Nc2ccccc2C(=O)NC2CC2)cc1 (configuration not stated) | -6.73% | – | –
COc1ccc2c(c1)CCc1c-2n[nH]c1C(=O)NCCC(C)C | -31.8% | 29.1 µM [falling, single point] | 29.1 µM [falling, single point]

SMILES | cell number change | AC50 [1] | AC50 [2]
NS(=O)(=O)c1ccc(NS(=O)(=O)c2cccs2)cc1 | -0.859% | 29.1 µM [falling, single point] | –
O=C(CN1C(=O)c2ccccc2S1(=O)=O)NC1CC2CCC1C2 (configuration not stated) | -15.7% | – | –
COc1ccc(C)c(NC(=O)NCCc2cnc[nH]2)c1 | 4.76% | – | –
N#Cc1c(SCC(N)=O)nc2c(c1-c1ccc(O)cc1)CCCC2 | 25% | 2.31 µM [rising, partial curve] | 0.411 µM [rising, full curve, poor fit]
O=c1cc(Nc2cccc(Br)c2)[nH]c(=O)[nH]1 | 6.73% | 4.11 µM [falling, partial curve, poor fit] | –
COCC(C)NC(=O)NC(=O)c1ccc(Cl)cc1 (configuration not stated) | 22% | 2.59 µM [falling, single point] | –
Cc1ccc(-n2nnnc2CN2CCCCC2)cc1 | -7.56% | 0.13 µM [falling, full curve, poor fit] | –
COc1cccc(NC(=S)NCCc2ccccn2)c1 | -38.3% | – | –
O=C(NCCc1ccc(Cl)cc1)c1ccc(=O)[nH]c1 | 1.8% | 3.66 µM [rising, partial curve, poor fit] | –
Cc1ccc(S(=O)(=O)N(Cc2cccnc2)Cc2cc3ccccc3[nH]c2=O)cc1 | 21.1% | – | –
CN1CCN(C(=O)C2=C[C@H](c3csc4ccccc34)C[C@H](OCCCCO)O2)CC1 | 2.11% | 1.64 µM [rising, partial curve, poor fit] | –
COc1cc(C(=O)NCCC(=O)NC2CCCCCCC2)cc(OC)c1OC | -37.4% | 0.651 µM [falling, single point] | 0.58 µM [falling, partial curve, poor fit]
CCOc1ccc(/C=N/Nc2cc(N3CCOCC3)nc(C)n2)c(O)c1 | 0.824% | 23.1 µM [rising, single point] | –
Cc1ccc(/C=C2\CCC3=C2OC(N)=C(C#N)C3c2ccc(C)cc2)cc1 (configuration not stated) | -62.6% | – | 29.1 µM [falling, single point]
CC(C)(C)c1ccc(C(=O)N2CCCC2c2cccs2)cc1 (configuration not stated) | -17.1% | 0.206 µM [rising, single point] | –
COc1ccc(C2=NOC(C(=O)Nc3cc(C)nn3-c3ccccc3)C2)cc1OC (configuration not stated) | 2.63% | 9.2 µM [rising, partial curve] | –
CN(C)c1nc(NC(C)(C)C)nc(SCC(=O)Nc2ccccc2)n1 | -31.3% | – | –
C=CCOc1ccccc1NC(=O)CN1C(=O)CNC1=O | 14.8% | 6.51 µM [falling, single point] | –
CN(C(=O)CSc1nnc(-c2ccc3c(c2)OCO3)o1)C1CCS(=O)(=O)C1 (configuration not stated) | -6.98% | 0.231 µM [rising, full curve, poor fit] | –
